Data reported in the supplement of paper PMC12823440, “Inhibitors supercharge kinase turnover through native proteolytic circuits” (Nature, 2025).
Structures can show the parent of a compound that is named as a salt. Some of the results follow. The calls rarely recur for the same compound in another form.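 Kinases, fused to nanoluciferase, were expressed in K562 cells; luminescence was measured every 4 h from 2 to 18 h as percent of control (DMSO = 100%, positive control = 0%). A time point is decreased if signal falls significantly (2 sigma). Hits were called by the authors by a rule that is not shown; the count of time points alone does not decide it.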

Chains of the proteins cited; added tags and fusions are not shown. Lines headed by an entry give the natural chain unless they say otherwise; changes in a name come on top.
UniProt O15530: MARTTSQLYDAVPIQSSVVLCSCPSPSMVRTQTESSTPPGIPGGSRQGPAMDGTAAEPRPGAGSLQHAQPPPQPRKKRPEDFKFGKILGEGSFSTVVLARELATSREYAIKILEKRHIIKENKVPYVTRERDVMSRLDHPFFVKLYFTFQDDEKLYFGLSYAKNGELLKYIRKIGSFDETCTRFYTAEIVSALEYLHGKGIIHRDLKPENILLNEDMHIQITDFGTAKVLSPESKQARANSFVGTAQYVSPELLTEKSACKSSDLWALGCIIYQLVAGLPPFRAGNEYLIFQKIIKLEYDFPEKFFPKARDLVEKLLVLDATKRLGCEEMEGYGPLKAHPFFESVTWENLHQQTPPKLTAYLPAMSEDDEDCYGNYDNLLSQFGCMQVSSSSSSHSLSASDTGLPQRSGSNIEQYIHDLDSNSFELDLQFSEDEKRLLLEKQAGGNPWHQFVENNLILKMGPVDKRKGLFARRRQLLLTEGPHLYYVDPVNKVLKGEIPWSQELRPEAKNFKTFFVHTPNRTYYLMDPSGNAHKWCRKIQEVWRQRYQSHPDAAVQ
UniProt P42356, whole entry, looked up: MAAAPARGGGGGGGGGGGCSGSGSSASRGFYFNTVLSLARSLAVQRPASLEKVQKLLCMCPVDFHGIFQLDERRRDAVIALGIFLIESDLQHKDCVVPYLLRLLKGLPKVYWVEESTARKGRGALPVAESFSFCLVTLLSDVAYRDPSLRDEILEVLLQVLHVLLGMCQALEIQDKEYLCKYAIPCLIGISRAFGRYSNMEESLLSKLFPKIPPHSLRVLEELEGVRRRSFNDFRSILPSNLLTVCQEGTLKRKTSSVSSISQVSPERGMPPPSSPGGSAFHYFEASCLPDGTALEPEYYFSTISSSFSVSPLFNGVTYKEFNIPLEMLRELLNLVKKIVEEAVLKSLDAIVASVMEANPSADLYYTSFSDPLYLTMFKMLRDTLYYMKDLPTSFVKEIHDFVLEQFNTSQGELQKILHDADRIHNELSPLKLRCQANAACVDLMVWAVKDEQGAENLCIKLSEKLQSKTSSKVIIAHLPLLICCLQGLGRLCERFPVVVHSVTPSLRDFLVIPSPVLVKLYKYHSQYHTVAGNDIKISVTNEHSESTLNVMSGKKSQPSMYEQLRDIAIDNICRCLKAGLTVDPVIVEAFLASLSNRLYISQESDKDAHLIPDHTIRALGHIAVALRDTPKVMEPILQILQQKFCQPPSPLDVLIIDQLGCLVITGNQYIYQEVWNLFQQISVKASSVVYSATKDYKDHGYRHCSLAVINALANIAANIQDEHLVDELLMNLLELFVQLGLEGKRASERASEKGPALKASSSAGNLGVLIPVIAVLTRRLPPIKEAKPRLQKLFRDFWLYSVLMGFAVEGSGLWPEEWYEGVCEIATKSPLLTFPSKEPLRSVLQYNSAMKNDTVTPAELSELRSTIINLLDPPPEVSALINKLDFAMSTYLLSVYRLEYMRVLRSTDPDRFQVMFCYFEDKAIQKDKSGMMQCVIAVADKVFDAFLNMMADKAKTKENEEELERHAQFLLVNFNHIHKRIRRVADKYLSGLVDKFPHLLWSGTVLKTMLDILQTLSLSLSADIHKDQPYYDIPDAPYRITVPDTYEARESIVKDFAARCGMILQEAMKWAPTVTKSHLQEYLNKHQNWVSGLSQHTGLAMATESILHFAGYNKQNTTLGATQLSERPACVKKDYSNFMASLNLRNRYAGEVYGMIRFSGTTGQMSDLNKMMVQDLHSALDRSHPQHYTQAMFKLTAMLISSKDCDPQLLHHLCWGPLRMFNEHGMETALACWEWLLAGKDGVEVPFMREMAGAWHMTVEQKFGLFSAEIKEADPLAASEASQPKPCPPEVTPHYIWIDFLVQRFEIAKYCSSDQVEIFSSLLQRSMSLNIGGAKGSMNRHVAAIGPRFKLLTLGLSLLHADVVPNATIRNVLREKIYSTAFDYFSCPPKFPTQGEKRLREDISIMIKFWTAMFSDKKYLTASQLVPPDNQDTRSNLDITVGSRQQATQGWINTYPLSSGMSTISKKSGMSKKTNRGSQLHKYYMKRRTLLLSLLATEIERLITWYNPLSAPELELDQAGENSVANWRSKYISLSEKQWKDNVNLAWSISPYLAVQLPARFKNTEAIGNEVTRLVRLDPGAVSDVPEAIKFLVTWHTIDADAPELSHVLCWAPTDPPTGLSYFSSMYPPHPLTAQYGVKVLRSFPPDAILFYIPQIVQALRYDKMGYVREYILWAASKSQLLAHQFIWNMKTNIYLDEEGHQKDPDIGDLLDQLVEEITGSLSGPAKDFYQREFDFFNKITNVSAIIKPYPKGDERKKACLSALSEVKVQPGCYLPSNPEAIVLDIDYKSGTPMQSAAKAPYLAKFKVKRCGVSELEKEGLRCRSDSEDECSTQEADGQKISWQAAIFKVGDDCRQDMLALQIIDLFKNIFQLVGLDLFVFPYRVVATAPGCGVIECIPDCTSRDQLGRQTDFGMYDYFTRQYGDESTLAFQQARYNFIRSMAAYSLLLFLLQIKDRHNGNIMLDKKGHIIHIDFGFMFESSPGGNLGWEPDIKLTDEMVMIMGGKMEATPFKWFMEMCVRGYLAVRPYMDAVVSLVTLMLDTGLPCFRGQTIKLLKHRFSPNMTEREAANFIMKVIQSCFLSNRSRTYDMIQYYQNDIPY
UniProt Q9UBF8: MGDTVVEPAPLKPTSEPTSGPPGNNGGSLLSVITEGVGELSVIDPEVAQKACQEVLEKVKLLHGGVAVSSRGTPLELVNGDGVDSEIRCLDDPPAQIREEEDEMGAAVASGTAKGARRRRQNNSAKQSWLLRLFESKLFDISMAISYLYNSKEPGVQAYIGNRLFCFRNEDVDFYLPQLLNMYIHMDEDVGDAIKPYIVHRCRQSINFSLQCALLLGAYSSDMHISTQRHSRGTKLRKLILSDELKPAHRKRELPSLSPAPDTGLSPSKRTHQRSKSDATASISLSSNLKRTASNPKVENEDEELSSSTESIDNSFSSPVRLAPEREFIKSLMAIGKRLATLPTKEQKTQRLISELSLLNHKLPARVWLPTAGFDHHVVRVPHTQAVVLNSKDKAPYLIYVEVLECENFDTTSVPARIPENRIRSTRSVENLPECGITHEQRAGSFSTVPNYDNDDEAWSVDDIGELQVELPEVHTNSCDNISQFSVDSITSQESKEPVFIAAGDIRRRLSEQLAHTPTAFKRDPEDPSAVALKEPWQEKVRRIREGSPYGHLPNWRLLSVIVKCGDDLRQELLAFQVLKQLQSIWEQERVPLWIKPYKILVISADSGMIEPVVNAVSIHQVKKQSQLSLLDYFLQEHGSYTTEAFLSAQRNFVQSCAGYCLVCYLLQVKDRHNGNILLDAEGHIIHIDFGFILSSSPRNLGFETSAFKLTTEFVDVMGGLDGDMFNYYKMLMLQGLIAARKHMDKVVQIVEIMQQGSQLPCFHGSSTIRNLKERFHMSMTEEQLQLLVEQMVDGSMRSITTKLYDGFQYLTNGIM
UniProt P53350, whole entry: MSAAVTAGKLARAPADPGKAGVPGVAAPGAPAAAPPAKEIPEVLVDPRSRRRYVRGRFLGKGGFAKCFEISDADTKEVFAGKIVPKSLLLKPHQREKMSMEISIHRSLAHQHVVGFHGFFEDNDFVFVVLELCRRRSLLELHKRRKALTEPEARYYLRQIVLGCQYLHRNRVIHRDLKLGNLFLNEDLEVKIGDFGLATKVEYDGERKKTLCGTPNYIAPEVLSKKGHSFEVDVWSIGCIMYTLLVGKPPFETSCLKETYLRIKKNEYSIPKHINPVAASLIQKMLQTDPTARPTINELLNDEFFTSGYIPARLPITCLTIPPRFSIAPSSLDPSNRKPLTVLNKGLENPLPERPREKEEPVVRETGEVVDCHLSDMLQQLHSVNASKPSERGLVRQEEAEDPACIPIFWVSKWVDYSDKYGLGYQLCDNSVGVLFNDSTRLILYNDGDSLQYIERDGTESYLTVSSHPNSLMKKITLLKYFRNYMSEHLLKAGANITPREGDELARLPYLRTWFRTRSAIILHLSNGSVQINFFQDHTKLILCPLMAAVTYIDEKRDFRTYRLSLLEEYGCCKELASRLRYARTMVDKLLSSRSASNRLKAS
UniProt Q13131: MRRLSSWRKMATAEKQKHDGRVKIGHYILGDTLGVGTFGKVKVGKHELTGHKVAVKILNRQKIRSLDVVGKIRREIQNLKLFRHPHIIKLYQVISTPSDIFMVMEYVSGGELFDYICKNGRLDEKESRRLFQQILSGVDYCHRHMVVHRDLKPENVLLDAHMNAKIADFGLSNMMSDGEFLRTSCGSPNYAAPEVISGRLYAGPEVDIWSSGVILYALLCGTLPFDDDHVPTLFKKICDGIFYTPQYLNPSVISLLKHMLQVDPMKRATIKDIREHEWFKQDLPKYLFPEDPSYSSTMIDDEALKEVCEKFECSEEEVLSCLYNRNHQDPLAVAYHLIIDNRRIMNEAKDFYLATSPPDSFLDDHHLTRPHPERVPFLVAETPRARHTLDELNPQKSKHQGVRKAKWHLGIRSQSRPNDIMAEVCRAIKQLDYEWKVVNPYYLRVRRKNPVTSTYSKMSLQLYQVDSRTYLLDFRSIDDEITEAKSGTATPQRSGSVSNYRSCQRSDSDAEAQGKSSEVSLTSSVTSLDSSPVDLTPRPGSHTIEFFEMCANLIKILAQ
UniProt Q05397, whole entry, looked up: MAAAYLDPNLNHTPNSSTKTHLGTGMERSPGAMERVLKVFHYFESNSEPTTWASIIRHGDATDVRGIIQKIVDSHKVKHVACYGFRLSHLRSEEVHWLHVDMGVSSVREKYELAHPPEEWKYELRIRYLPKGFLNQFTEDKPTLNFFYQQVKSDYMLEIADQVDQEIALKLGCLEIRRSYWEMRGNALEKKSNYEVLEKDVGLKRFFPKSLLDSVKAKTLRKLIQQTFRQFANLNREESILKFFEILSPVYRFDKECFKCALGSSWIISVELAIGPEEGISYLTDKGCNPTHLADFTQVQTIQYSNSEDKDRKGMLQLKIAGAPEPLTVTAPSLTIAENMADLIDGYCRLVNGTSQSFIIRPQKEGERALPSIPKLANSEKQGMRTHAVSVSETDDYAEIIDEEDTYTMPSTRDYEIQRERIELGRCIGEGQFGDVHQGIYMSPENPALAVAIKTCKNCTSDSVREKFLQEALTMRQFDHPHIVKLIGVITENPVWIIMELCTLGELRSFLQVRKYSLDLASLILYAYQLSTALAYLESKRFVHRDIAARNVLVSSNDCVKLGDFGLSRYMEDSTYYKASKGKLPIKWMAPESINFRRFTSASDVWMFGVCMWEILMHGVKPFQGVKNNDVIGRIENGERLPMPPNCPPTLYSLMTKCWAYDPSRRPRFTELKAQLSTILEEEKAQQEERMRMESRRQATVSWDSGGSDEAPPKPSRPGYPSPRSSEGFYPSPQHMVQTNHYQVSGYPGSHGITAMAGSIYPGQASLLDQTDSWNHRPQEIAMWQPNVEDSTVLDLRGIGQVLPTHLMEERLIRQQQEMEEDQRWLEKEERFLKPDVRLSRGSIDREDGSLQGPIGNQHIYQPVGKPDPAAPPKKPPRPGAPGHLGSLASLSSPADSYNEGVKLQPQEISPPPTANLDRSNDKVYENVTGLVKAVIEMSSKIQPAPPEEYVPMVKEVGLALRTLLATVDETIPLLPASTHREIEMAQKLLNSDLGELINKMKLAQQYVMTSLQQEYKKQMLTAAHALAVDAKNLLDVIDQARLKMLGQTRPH

Experiments:
Test in all cases: kinase-Nluc reporter destabilization hit call (1 = scored as downregulated) (binary); higher = compound decreases kinase abundance
Settings in all cases: K562; 2-18 h
PDPK1 = PDPK1 (UniProt O15530)
PIK4CA = PIK4CA (UniProt P42356)
PIK4CB = PIK4CB (UniProt Q9UBF8)
PLK1 = PLK1 (UniProt P53350)
PRKAA1 = PRKAA1 (UniProt Q13131)
PRKCA = PRKCA (UniProt P17252)
PTK2 = PTK2 (UniProt Q05397)
PTK2B = PTK2B (UniProt Q14289)
RAF1 = RAF1 (UniProt P04049)
[1] = biological target: RAF1_S257L (clone: RAF1_mut) (UniProt P04049)

Measured: kinase-Nluc reporter destabilization hit call

N[C@H](Cc1c[nH]c2ccccc12)C(=O)N/N=C/c1ccc2nccnc2c1 [Rhosin (hydrochloride)] (10 µM)
inactive: PDPK1 = 0 | PIK4CA 0 | PIK4CB 0 | PLK1 = 0 | PRKAA1 = 0 | PRKCA 0 | PTK2 = 0 | PTK2B 0 | RAF1 = 0 | [1] 0

C[C@@H]1C(=O)O[C@H](C)[C@H]1C[C@@H](O)[C@](C)(O)[C@H]1CC[C@@]2(O)C3=CC(=O)[C@@H]4C[C@@H](O)[C@@H](O)C[C@]4(C)[C@H]3CC[C@]12C [Cyasterone] (10 µM)
inactive: PDPK1 = 0 | PIK4CA 0 | PIK4CB 0 | PLK1 = 0 | PRKAA1 = 0 | PRKCA 0 | PTK2 = 0 | PTK2B 0 | RAF1 = 0 | [1] 0

Cn1cnc(-c2cc3nccc(Oc4ccc(NC(=S)NC(=O)Cc5ccccc5)cc4F)c3s2)c1 [MGCD-265 analog] (10 µM)
active: PTK2 = 1
inactive: PDPK1 = 0 | PIK4CA 0 | PIK4CB 0 | PLK1 = 0 | PRKAA1 = 0 | PRKCA 0 | PTK2B 0 | RAF1 = 0 | [1] 0

CO[C@H]1C[C@@H]2CC[C@@H](C)[C@@](O)(O2)C(=O)C(=O)N2CCCC[C@H]2C(=O)O[C@H]([C@H](C)C[C@@H]2CC[C@@H](O)[C@H](OC)C2)CC(=O)[C@H](C)/C=C(\C)[C@@H](O)[C@@H](OC)C(=O)[C@H](C)C[C@H](C)/C=C/C=C/C=C/1C [Rapamycin] (10 µM)
inactive: PDPK1 = 0 | PIK4CA 0 | PIK4CB 0 | PLK1 = 0 | PRKAA1 = 0 | PRKCA 0 | PTK2 = 0 | PTK2B 0 | RAF1 = 0 | [1] 0

CN1C(=O)C(Cc2c[nH]c3ccccc23)NC1=S (stereo not given) [Necrostatin-1] (10 µM)
inactive: PDPK1 = 0 | PIK4CA 0 | PIK4CB 0 | PLK1 = 0 | PRKAA1 = 0 | PRKCA 0 | PTK2 = 0 | PTK2B 0 | RAF1 = 0 | [1] 0

O=C(NC(NC(=S)Nc1ccc(F)c([N+](=O)[O-])c1)C(Cl)(Cl)Cl)C(c1ccccc1)c1ccccc1 (stereo not given) (10 µM)
inactive: PDPK1 = 0 | PIK4CA 0 | PIK4CB 0 | PLK1 = 0 | PRKAA1 = 0 | PRKCA 0 | PTK2 = 0 | PTK2B 0 | RAF1 = 0 | [1] 0

CC(C)(C)NC(=O)c1cncn1C1CCN(c2ccc(-c3nnc(C(F)(F)F)o3)cn2)CC1 (10 µM)
inactive: PDPK1 = 0 | PIK4CA 0 | PIK4CB 0 | PLK1 = 0 | PRKAA1 = 0 | PRKCA 0 | PTK2 = 0 | PTK2B 0 | RAF1 = 0 | [1] 0

OC[C@H]1O[C@@H](Oc2cc3c(O)cc(O)cc3[o+]c2-c2cc(O)c(O)c(O)c2)[C@H](O)[C@@H](O)[C@@H]1O [Delphinidin 3-glucoside (chloride)] (10 µM)
inactive: PDPK1 = 0 | PIK4CA 0 | PIK4CB 0 | PLK1 = 0 | PRKAA1 = 0 | PRKCA 0 | PTK2 = 0 | PTK2B 0 | RAF1 = 0 | [1] 0

O=c1oc2cc(O)ccc2c2ccccc12 [Urolithin B] (10 µM)
inactive: PDPK1 = 0 | PIK4CA 0 | PIK4CB 0 | PLK1 = 0 | PRKAA1 = 0 | PRKCA 0 | PTK2 = 0 | PTK2B 0 | RAF1 = 0 | [1] 0

CNc1nc(Nc2cnn(C3CCN(C4COC4)CC3F)c2Cl)ncc1C(F)(F)F (stereo not given) (10 µM)
inactive: PDPK1 = 0 | PIK4CA 0 | PIK4CB 0 | PLK1 = 0 | PRKAA1 = 0 | PRKCA 0 | PTK2 = 0 | PTK2B 0 | RAF1 = 0 | [1] 0

COc1cc(C(N)=O)nc(-c2cccc(C#C[C@]3(O)CCN(C)C3=O)c2)c1 (10 µM)
inactive: PDPK1 = 0 | PIK4CA 0 | PIK4CB 0 | PLK1 = 0 | PRKAA1 = 0 | PRKCA 0 | PTK2 = 0 | PTK2B 0 | RAF1 = 0 | [1] 0

COc1ccc(C2CC(c3ccccc3)=NN2c2ccc(S(N)(=O)=O)cc2)cc1 (stereo not given) (10 µM)
inactive: PDPK1 = 0 | PIK4CA 0 | PIK4CB 0 | PLK1 = 0 | PRKAA1 = 0 | PRKCA 0 | PTK2 = 0 | PTK2B 0 | RAF1 = 0 | [1] 0

Cc1c(CN2CCN(C(=O)[C@H](C)O)CC2)sc2c(N3CCOCC3)nc(-c3cnc(N)nc3)nc12 [Apitolisib] (10 µM)
inactive: PDPK1 = 0 | PIK4CA 0 | PIK4CB 0 | PLK1 = 0 | PRKAA1 = 0 | PRKCA 0 | PTK2 = 0 | PTK2B 0 | RAF1 = 0 | [1] 0

COc1ccc(C(=C2C(=O)Nc3ccccc32)c2ccc(OC)cc2)cc1 (10 µM)
inactive: PDPK1 = 0 | PIK4CA 0 | PIK4CB 0 | PLK1 = 0 | PRKAA1 = 0 | PRKCA 0 | PTK2 = 0 | PTK2B 0 | RAF1 = 0 | [1] 0

COc1cc2ncnc(Nc3cccc(Cl)c3)c2cc1OC (10 µM)
inactive: PDPK1 = 0 | PIK4CA 0 | PIK4CB 0 | PLK1 = 0 | PRKAA1 = 0 | PRKCA 0 | PTK2 = 0 | PTK2B 0 | RAF1 = 0 | [1] 0

O=C(Nc1ccc(F)cc1F)[C@H](NC(=S)Nc1cc(C(F)(F)F)cc(C(F)(F)F)c1)c1ccccc1 (2.5 µM)
inactive: PDPK1 = 0 | PIK4CA 0 | PIK4CB 0 | PLK1 = 0 | PRKAA1 = 0 | PRKCA 0 | PTK2 = 0 | PTK2B 0 | RAF1 = 0 | [1] 0

Cc1ccc2nc(NC(=O)CSc3nc4c(c(=O)n3-c3ccccc3)SCC4)sc2c1 (2 µM)
inactive: PDPK1 = 0 | PIK4CA 0 | PIK4CB 0 | PLK1 = 0 | PRKAA1 = 0 | PRKCA 0 | PTK2 = 0 | PTK2B 0 | RAF1 = 0 | [1] 0

Cc1ccc(Oc2nc3cc(-c4ccc5c(ccn5C)c4)c(Cl)cc3[nH]2)cc1C(=O)O (10 µM)
inactive: PDPK1 = 0 | PIK4CA 0 | PIK4CB 0 | PLK1 = 0 | PRKAA1 = 0 | PRKCA 0 | PTK2 = 0 | PTK2B 0 | RAF1 = 0 | [1] 0

O=C(Nc1cc(Oc2cc(F)c(NC(=O)C3(C(=O)Nc4ccc(F)cc4)CC3)cc2F)ccn1)C1CC1 [Altiratinib] (10 µM)
inactive: PDPK1 = 0 | PIK4CA 0 | PIK4CB 0 | PLK1 = 0 | PRKAA1 = 0 | PRKCA 0 | PTK2B 0 | RAF1 = 0 | [1] 0
active: PTK2 = 1

COc1cc2ncn(-c3cc(OCc4ccccc4S(C)(=O)=O)c(C#N)s3)c2cc1OC (10 µM)
inactive: PDPK1 = 0 | PIK4CA 0 | PIK4CB 0 | PLK1 = 0 | PRKAA1 = 0 | PRKCA 0 | PTK2 = 0 | PTK2B 0 | RAF1 = 0 | [1] 0

C=C(C)C(=O)Nc1cccc(-c2ncnc3[nH]cc(C(=O)OCC)c23)c1 (10 µM)
inactive: PDPK1 = 0 | PIK4CA 0 | PIK4CB 0 | PLK1 = 0 | PRKAA1 = 0 | PRKCA 0 | PTK2 = 0 | PTK2B 0 | RAF1 = 0 | [1] 0

N#Cc1c(-c2ccccc2)cc(-c2cc(Br)ccc2O)[nH]c1=O (10 µM)
inactive: PDPK1 = 0 | PIK4CA 0 | PIK4CB 0 | PLK1 = 0 | PRKAA1 = 0 | PRKCA 0 | PTK2 = 0 | PTK2B 0 | RAF1 = 0 | [1] 0

CCn1c(-c2nonc2N)nc2cnc(Oc3cccc(NC(=O)c4ccc(OCCN5CCOCC5)cc4)c3)cc21 (10 µM)
active: PTK2 = 1
inactive: PDPK1 = 0 | PIK4CA 0 | PIK4CB 0 | PLK1 = 0 | PRKAA1 = 0 | PRKCA 0 | PTK2B 0 | RAF1 = 0 | [1] 0

OC(COc1ccc(C(F)(F)F)cc1)CN(Cc1ccccc1)Cc1ccccc1 (stereo not given) (2.5 µM)
inactive: PDPK1 = 0 | PIK4CA 0 | PIK4CB 0 | PLK1 = 0 | PRKAA1 = 0 | PRKCA 0 | PTK2 = 0 | PTK2B 0 | RAF1 = 0 | [1] 0

At a glance, two of the compounds above:
COc1cc2ncn(-c3cc(OCc4ccccc4S(C)(=O)=O)c(C#N)s3)c2cc1OC (10 µM)
inactive: PDPK1 = 0 | PIK4CA 0 | PIK4CB 0 | PLK1 = 0 | PRKAA1 = 0 | PRKCA 0 | PTK2 = 0 | PTK2B 0 | RAF1 = 0 | [1] 0

C=C(C)C(=O)Nc1cccc(-c2ncnc3[nH]cc(C(=O)OCC)c23)c1 (10 µM)
inactive: PDPK1 = 0 | PIK4CA 0 | PIK4CB 0 | PLK1 = 0 | PRKAA1 = 0 | PRKCA 0 | PTK2 = 0 | PTK2B 0 | RAF1 = 0 | [1] 0

(cont.)

Cc1cc(NC(=O)c2cccc(NC(=O)/C=C/CN(C)C)c2)ccc1Nc1nccc(-c2cccnc2)n1 (10 µM)
inactive: PDPK1 = 0 | PIK4CA 0 | PIK4CB 0 | PLK1 = 0 | PRKAA1 = 0 | PRKCA 0 | PTK2 = 0 | PTK2B 0 | RAF1 = 0 | [1] 0

CC1=C2C(=O)O[C@@H](c3ccoc3)[C@]2(C)CCC1 [Fraxinellone] (10 µM)
inactive: PDPK1 = 0 | PIK4CA 0 | PIK4CB 0 | PLK1 = 0 | PRKAA1 = 0 | PRKCA 0 | PTK2 = 0 | PTK2B 0 | RAF1 = 0 | [1] 0

N#Cc1ccc2ncnc(NC3CCC(N4CCOCC4)CC3)c2c1 (stereo not given) (10 µM)
inactive: PDPK1 = 0 | PIK4CA 0 | PIK4CB 0 | PLK1 = 0 | PRKAA1 = 0 | PRKCA 0 | PTK2 = 0 | PTK2B 0 | RAF1 = 0 | [1] 0

C=CC(=O)Nc1cc2c(Nc3ccc(OCc4ccccn4)c(Cl)c3)ncnc2cc1OCCN1CCOCC1 (10 µM)
inactive: PDPK1 = 0 | PIK4CA 0 | PIK4CB 0 | PLK1 = 0 | PRKAA1 = 0 | PRKCA 0 | PTK2 = 0 | PTK2B 0 | RAF1 = 0 | [1] 0

Cc1ccc(S(=O)(=O)/C=C/C#N)cc1 (10 µM)
inactive: PDPK1 = 0 | PIK4CA 0 | PIK4CB 0 | PLK1 = 0 | PRKAA1 = 0 | PRKCA 0 | PTK2 = 0 | PTK2B 0 | RAF1 = 0 | [1] 0
